PubChem BioAssay AID686938 | Drosophila RNAi Screening Center | 2013
The deposit covers about 23,000 reagents; below is a random part of those that have a named target and a result. In the full data, 75 (0.33%) are marked active. 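Raw plate signals without normalisation; calls rest on plate z-scores that were not deposited; ratio present for only 364 wells.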 A number with no mark means an inactive call. Names joined by + are all predicted targets of the reagent. Reagent sequences are not shown. Not given: the dose of the treatment.

Test: 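Looking for CRAC channel components and the factors controlling them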 (primary screen)
Cell system: Drosophila S2R+ cells
Reagents: long dsRNA against Drosophila genes, about 0.25 µg dsRNA per well, roughly 10,000 cells
Time to read-out: 5 days of knock-down before the calcium assay
Treatment: thapsigargin (SERCA pump blocker) to empty calcium stores; entry signal taken 4 min after adding it
Measured: 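Duplicate raw fluo-4 intensities per well from a plate reader, at rest and four minutes after thapsigargin emptied calcium stores; entry-to-rest ratio filled for only some wells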
Direction: calcium entry signal: higher = stronger calcium signal after store depletion; resting calcium signal: higher = higher resting calcium signal
Units: calcium entry signal in fluorescence units; resting calcium signal in fluorescence units
Rule for the call: 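Called when the plate z-score of the entry-to-rest ratio, mean of duplicates, falls below −3; wells with low overall dye signal (Fmax z below −2) or more than five off-targets excluded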
Meaning of the calls: active = strongly reduced calcium entry; inactive = no strong reduction

Lipt1 + CG42837 showed calcium entry signal, replicate 1 = 3.96e7; calcium entry signal, replicate 2 = 3.45e7; resting calcium signal, replicate 1 = 1.81e7; resting calcium signal, replicate 2 = 1.74e7.
Against CG32450, the values are calcium entry signal, replicate 1 = 5.17e7; calcium entry signal, replicate 2 = 4.12e7; resting calcium signal, replicate 1 = 2.38e7; resting calcium signal, replicate 2 = 1.89e7.
With knock-down of CG12766, the record shows calcium entry signal, replicate 1 = 2.81e7; calcium entry signal, replicate 2 = 4.67e7; resting calcium signal, replicate 1 = 1.71e7; resting calcium signal, replicate 2 = 2.25e7.
CG14589 gave calcium entry signal, replicate 1 = 3.83e7; calcium entry signal, replicate 2 = 4.89e7; resting calcium signal, replicate 1 = 2.02e7; resting calcium signal, replicate 2 = 2.19e7.
Depletion of CG1628 came out at: calcium entry signal, replicate 1 = 5.26e7; calcium entry signal, replicate 2 = 3.97e7; resting calcium signal, replicate 1 = 2.26e7; resting calcium signal, replicate 2 = 1.86e7.
Depletion of CG9328 resulted in: calcium entry signal, replicate 1 = 2.46e7; resting calcium signal, replicate 1 = 1.20e7.
Gdi scored calcium entry signal, replicate 1 = 5.04e7; resting calcium signal, replicate 1 = 2.46e7.
For CG1907 the deposit lists calcium entry signal, replicate 1 = 2.72e7; calcium entry signal, replicate 2 = 3.30e7; resting calcium signal, replicate 1 = 1.31e7; resting calcium signal, replicate 2 = 1.58e7.
Taf13 gave calcium entry signal, replicate 1 = 3.61e7; calcium entry signal, replicate 2 = 4.49e7; resting calcium signal, replicate 1 = 1.92e7; resting calcium signal, replicate 2 = 1.96e7.
After knock-down of CG13460 the results were calcium entry signal, replicate 1 = 3.28e7; calcium entry signal, replicate 2 = 5.10e7; resting calcium signal, replicate 1 = 1.74e7; resting calcium signal, replicate 2 = 1.94e7.
obst-G scored calcium entry signal, replicate 1 = 2.82e7; calcium entry signal, replicate 2 = 3.85e7; resting calcium signal, replicate 1 = 1.54e7; resting calcium signal, replicate 2 = 1.75e7.
After knock-down of CG11658 the results were calcium entry signal, replicate 1 = 2.47e7; calcium entry signal, replicate 2 = 3.82e7; resting calcium signal, replicate 1 = 1.26e7; resting calcium signal, replicate 2 = 1.63e7.

2 entries from above in another layout.
| gene | calcium entry signal, replicate 1 | calcium entry signal, replicate 2 | resting calcium signal, replicate 1 | resting calcium signal, replicate 2 |
| --- | --- | --- | --- | --- |
| CG14589 | 3.83e7 | 4.89e7 | 2.02e7 | 2.19e7 |
| CG1628 | 5.26e7 | 3.97e7 | 2.26e7 | 1.86e7 |
